Measurements from PubChem BioAssay AID488902 (Broad Institute, 2010).
The inconclusive results got no clear call from the source; some entries with a clear call stand among them for comparison. Active and inactive are the calls of the source.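 Rule for the calls: active = rising caspase curve whose AC50 is at most ten times the top dose tested; inconclusive = flat fit between 30 and 70%, or a poor fit; inactive = the rest.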

Assay: apoptosis induction in WT mouse fibroblasts – cell-based, wild-type MEF, Caspase-Glo luminescence, dry powder, counter-screen for A1 (Bcl2-A1) inhibitor project, dose response (AID 488902)
Conditions: 3 h; caspase activation: at 150 µM (top of the series); outcome: wild-type MEF caspase activation
How it was run: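 Test system: unprimed wild-type MEF cells. Technique: luminescence with CaspaseGlo reagent, 1:1 dilution in 50 mM HEPES. Compound dosing: dose-response series from dry powder, 100 nL pinned per well. Read-out: caspase activation. Timing: compound 3 h at 37 °C, 5% CO2, caspase reagent 1 h.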

SMILES | outcome | caspase activation
CC1(C)CCC(c2ccc(Cl)cc2)=C(CN2CCN(c3ccc(C(=O)NS(=O)(=O)c4ccc(N[C@H](CCN5CCOCC5)CSc5ccccc5)c(S(=O)(=O)C(F)(F)F)c4)cc3)CC2)C1 | inconclusive | 
Cc1c(C=O)c(C=O)c(C)n1Cc1ccccc1 |  | inactive: 1.13%
